No constants are given. Whether binding was seen depends on the method and setting. In cells and extracts the contact can be indirect. Some entries that bind do so weakly or less than the wild type.
What was measured:
[1] = biological target: IL1β-IL1RI complex (Homo sapiens (Human)) (UniProt P01584); experiment: pull-down with anti-6×His magnetic beads, western blot for IL1β (FIG. 16e)
[2] = biological target: IL1β-IL1RI complex (Homo sapiens (Human)) (UniProt P01584); experiment: protein painting, LC-MS/MS (FIG. 16b)
[3] = biological target: IL1β-IL1RI complex (Homo sapiens (Human)) (UniProt P01584); experiment: protein painting of the ternary complex, LC-MS/MS

Sequences of proteins named here, by UniProt entry; tags and fusion partners are left off. A change or cut given only in a name is not applied to a line headed by its entry. Residues count along the entry.
UniProt P01584: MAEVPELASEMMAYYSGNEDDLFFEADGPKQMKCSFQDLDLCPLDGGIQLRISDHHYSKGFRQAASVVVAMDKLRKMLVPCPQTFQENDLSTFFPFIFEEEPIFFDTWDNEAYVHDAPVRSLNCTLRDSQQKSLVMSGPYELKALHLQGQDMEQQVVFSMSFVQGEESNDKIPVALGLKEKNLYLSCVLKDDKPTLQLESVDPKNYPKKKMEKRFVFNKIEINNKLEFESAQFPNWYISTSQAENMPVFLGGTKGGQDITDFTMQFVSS
UniProt Q9NPH3, residues 21-359: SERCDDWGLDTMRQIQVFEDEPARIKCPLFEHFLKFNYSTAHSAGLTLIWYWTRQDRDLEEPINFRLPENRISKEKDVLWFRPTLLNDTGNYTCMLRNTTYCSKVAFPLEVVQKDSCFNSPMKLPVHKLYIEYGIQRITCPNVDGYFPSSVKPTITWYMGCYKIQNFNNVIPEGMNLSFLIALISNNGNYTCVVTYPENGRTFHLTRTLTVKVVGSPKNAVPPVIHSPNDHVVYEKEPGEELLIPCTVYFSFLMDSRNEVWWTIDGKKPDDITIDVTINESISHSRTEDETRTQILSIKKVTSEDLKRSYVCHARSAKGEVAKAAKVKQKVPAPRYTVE

Substance | binding [1] | binding [2] | binding [3]
6×His-tagged IL1RAcP (from UniProt Q9NPH3 21-359) (receptor) | binds | – | –
Interleukin 1 receptor accessory protein (IL1RAcP, Novoprotein) (from UniProt Q9NPH3 21-359) | – | binds | binds

From patent publication US10126304B2, “Binding domain mapping” (George Mason Research Foundation, Inc., priority 2013, dated 2018)
